{
  "sequences": {"note": "Amino acid sequences for entries named in this document (tags omitted). A change or cut given only in a name is not applied to a line headed by its entry.", "UniProt Q9D906": "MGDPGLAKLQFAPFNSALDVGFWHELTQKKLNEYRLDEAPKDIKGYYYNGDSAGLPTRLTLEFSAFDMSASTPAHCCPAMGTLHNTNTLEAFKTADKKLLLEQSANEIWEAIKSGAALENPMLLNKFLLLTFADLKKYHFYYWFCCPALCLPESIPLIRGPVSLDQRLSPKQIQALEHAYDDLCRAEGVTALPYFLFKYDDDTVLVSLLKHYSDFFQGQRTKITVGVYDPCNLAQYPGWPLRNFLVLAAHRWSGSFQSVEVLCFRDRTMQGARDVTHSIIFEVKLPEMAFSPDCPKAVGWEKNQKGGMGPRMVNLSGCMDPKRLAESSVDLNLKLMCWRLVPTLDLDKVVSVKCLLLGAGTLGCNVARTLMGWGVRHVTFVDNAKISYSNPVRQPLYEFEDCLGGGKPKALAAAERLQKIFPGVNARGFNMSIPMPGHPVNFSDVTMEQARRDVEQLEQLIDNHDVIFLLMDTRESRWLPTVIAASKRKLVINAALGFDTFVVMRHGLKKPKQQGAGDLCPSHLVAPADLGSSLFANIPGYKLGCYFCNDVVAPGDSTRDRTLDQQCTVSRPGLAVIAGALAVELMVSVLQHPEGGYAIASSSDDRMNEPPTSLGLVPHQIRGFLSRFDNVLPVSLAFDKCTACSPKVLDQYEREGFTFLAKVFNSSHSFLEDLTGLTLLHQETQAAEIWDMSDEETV"},
  "source": "paper PMC9888389",
  "biological_target": "T1, Trx1 trapping mutant (Trx1 C35S) coexpressed with the Atg7 mutants (human) (UniProt P10599)",
  "T1 sequence": "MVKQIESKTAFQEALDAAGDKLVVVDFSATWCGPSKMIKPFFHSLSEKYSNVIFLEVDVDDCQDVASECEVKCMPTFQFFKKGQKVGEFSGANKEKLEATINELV",
  "assay": "co-IP; HEK293 cells with the indicated plasmids for 48 h (legend; the text says cardiomyocytes); Atg7 WT or mutants coexpressed with the Trx1 trapping mutant",
  "note": "Results are given in words; binding and its absence hold for the method and conditions named. Binding seen in cells or lysates may run through a third protein. Binding calls can cover weak binding; strength is not graded here.",
  "data": [
    {"substance": "WT Atg7 coexpressed with the Trx1 trapping mutant (from UniProt Q9D906) (enzyme)", "values": [
      {"measurement": "binding", "value": "binds"}
    ]}
  ]
}
